These are yes or no findings as the source states them, for the method shown. Binding seen in cells or lysates may run through a third protein.
Target: T1, activating transcription factor 4 (ATF4) (UniProt Q06507)
T1 sequence: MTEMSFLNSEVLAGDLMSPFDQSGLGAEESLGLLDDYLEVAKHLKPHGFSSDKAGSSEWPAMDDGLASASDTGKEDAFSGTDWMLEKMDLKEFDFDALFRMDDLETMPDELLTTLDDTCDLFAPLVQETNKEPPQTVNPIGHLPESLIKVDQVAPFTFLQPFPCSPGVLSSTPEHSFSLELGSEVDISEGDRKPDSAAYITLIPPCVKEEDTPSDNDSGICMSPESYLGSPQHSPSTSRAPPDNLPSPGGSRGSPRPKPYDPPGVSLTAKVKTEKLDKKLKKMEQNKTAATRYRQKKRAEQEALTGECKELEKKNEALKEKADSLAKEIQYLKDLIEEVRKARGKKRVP
Experiment: co-IP; NFATc1 and ATF4 overexpressed together in C2C12 cells; lysis buffer 150 mM NaCl, 25 mM Tris-HCl, 2% Brij35, 10 mM EDTA, brief sonication; lysate incubated with 10 µg of NFATc1 antibody, ATF4 antibody or control IgG, then protein G agarose beads; immunoblot

B1: nuclear factor of activated T-cells cytoplasmic 1 (NFATc1) (protein, UniProt O88942 1-717)
chain: MPNTSFPVPSKFPLGPPAAVCGSGETLRPAPPSGGTMKAAEEEHYSYVSPSVTSTLPLPTAHSALPAACHDLQTSTPGISAVPSANHPPSYGGAVDSGPSGYFLSSGNTRPNGAPTLESPRIEITSYLGLHHGSGQFFHDVEVEDVLPSCKRSPSTATLHLPSLEAYRDPSCLSPASSLSSRSCNSEASSYESNYSYPYASPQTSPWQSPCVSPKTTDPEEGFPRSLGACHLLGSPRHSPSTSPRASITEESWLGARGSRPTSPCNKRKYSLNGRQPSCSPHHSPTPSPHGSPRVSVTEDTWLGNTTQYTSSAIVAAINALTTDSTLDLGDGVPIKSRKTALEHAPSVALKVEPAGEDLGTTPPTSDFPPEEYTFQHLRKGAFCEQYLSVPQASYQWAKPKSLSPTSYMSPSLPALDWQLPSHSGPYELRIEVQPKSHHRAHYETEGSRGAVKASAGGHPIVQLHGYLENEPLTLQLFIGTADDRLLRPHAFYQVHRITGKTVSTTSHEIILSNTKVLEIPLLPENNMRAIIDCAGILKLRNSDIELRKGETDIGRKNTRVRLVFRVHIPQPNGRTLSLQVASNPIECSQRSAQELPLVEKQSTDSYPVIGGKKMVLSGHNFLQDSKVIFVEKAPDGHHVWEMEAKTDRDLCKPNSLVVEIPPFRNQRITSPAQVSFYVCNGKRKRSQYQRFTYLPANGNSVFLTLSSESELRGGFY
- binding: no binding

— PMC5666884
